{
  "sequences": {"note": "Chains of the proteins cited; added tags and fusions are not shown. Where a name states a change or a piece, a line headed by the entry shows the natural chain unless it says otherwise. Chains listed by the source or under a name are the forms on record and can include a tag or linker.", "GST-Abd-A DBD (Drosophila melanogaster), one chain, as listed by the source": "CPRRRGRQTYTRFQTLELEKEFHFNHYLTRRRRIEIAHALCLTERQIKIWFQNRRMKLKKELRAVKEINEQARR"},
  "source": "paper PMC4383587",
  "key": {"[1]": {"test_system": "GST-Abd-A DBD (Drosophila melanogaster)", "assay": "EMSA", "settings": "little-to-no binding; 50 mM HEPES pH 7.9, 100 mM KCl, 1 mM DTT, 12.5 mM MgCl2, 0.05 mM EDTA, 17% glycerol, 400 ng/ul poly(dI-dC), 20 fmol probe, 0-3000 ng protein, 30 min on ice; recombinant protein; residues 136-209; protein details: N-terminal GST (pGEX4T1); label: 3' biotin on each strand"}, "[2]": {"molecular_target": "GST-Abd-B DBD (UniProt P09087)", "assay": "EMSA", "settings": "50 mM HEPES pH 7.9, 100 mM KCl, 1 mM DTT, 12.5 mM MgCl2, 0.05 mM EDTA, 17% glycerol, 400 ng/ul poly(dI-dC), 20 fmol probe, 0-3000 ng protein, 30 min on ice, recombinant protein, protein details: GST, label: 3' biotin on each strand"}},
  "note": "A weaker result is weaker than the reference pair of the same experiment. For part of these data: Construct, isoform or probe ends are uncertain for at least one entry.",
  "data": [
    {"sequence": "ATGTATACGCCGCGGACAGTCTCTTTTTTT (double strand) [Motif 4 Mutant (Probe 5 A.8 KO)]", "values": [
      {"measurement": "binding result", "setting": "[1]", "result": "binds more weakly"},
      {"measurement": "binding result", "setting": "[2]; dramatically reduced", "result": "binds more weakly"}
    ]},
    {"sequence": "ATGTATACTAATTAGACAGTCTCTTTTTTT (double strand) [Motif 4 (t_MSE2 site S4, Probe 5)]", "values": [
      {"measurement": "binding result", "setting": "[2]", "result": "binds"}
    ]},
    {"sequence": "GAGAATTCAAGATCATAATATGTATACTAA (double strand) [Motif 3 (t_MSE2 site S3, Probe 4)]", "values": [
      {"measurement": "binding result", "setting": "[2]", "result": "binds"}
    ]},
    {"sequence": "GAGAATTCAAGATCGCCGTATGTATACTAA (double strand) [Motif 3 Mutant (Probe 4 B.3 KO)]", "values": [
      {"measurement": "binding result", "setting": "[1]", "result": "binds more weakly"},
      {"measurement": "binding result", "setting": "[2]; dramatically reduced", "result": "binds more weakly"}
    ]},
    {"sequence": "TTTTTATTACTTCAACTATTCAAATTT (double strand) [Motif 5 (t_MSE2 site S5, Probe 6)]", "values": [
      {"measurement": "binding result", "setting": "[2]", "result": "binds"}
    ]},
    {"sequence": "TTTTTGCCGCTTCAACTATTCAAATTT (double strand) [Motif 5 Mutant (Probe 6 B.4 v2 KO)]", "values": [
      {"measurement": "binding result", "setting": "[1]", "result": "binds more weakly"},
      {"measurement": "binding result", "setting": "[2]; dramatically reduced", "result": "binds more weakly"}
    ]}
  ]
}
